Publication PMC3720591

Biological target: T1, Flag-tagged p45 (mouse) (UniProt Q8CJ26)
T1 sequence: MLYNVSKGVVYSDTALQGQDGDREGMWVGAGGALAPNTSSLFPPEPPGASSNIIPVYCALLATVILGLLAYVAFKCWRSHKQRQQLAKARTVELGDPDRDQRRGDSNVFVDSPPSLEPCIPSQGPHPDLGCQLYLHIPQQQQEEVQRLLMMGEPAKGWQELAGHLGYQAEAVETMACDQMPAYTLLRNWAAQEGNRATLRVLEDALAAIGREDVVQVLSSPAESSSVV
Assay: co-IP; HEK293 cells with Flag-p45 and V5-tagged FADD constructs; lysis in RIPA buffer (150 mM NaCl, 1% NP-40, 0.5% DOC, 0.1% SDS, 50 mM Tris pH 8.0); immunoprecipitated with anti-Flag M2, blotted with anti-V5

Q: For “V5-tagged FADD-ΔDED (mouse) (domain or fragment)”, which binding is on record?
A: Its binding is “no binding”.

These are yes or no findings as the source states them, for the method shown. In cells and extracts the contact can be indirect. Where a sequence is shown, tags or fusion partners need not be part of it.
